# Source: PMC2841637
# The chains behind the UniProt entries cited, without tags or fusion partners. Residues count along the entry.
# UniProt P35739, residues 33-799: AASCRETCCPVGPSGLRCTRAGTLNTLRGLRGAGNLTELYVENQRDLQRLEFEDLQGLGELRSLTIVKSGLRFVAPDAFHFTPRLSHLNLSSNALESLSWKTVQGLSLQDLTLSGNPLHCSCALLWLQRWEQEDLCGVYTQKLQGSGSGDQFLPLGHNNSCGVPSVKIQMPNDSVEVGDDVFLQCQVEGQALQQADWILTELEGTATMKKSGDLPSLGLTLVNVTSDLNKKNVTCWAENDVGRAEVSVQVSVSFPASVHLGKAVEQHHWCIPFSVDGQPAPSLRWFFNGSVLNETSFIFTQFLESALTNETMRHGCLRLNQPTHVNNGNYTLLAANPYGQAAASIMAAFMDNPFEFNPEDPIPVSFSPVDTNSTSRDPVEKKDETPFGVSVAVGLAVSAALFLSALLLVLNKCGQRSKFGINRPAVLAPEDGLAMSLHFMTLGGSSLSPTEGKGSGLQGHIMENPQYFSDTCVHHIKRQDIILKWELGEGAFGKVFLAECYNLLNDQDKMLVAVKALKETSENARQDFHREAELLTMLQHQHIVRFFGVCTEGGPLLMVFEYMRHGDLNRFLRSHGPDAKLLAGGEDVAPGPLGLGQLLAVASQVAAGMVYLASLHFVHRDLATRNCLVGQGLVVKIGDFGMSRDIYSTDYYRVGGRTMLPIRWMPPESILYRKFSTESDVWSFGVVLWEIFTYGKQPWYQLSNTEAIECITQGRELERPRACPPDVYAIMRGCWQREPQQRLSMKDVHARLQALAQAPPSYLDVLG
# These are yes or no findings as the source states them, for the method shown. In cells and extracts the contact can be indirect. Sequences can lack the tags named with a protein.
# Molecular target: T1, Flag-tagged Tiam1 (C1199), aa 393-1590 (UniProt Q60610)
# T1 sequence: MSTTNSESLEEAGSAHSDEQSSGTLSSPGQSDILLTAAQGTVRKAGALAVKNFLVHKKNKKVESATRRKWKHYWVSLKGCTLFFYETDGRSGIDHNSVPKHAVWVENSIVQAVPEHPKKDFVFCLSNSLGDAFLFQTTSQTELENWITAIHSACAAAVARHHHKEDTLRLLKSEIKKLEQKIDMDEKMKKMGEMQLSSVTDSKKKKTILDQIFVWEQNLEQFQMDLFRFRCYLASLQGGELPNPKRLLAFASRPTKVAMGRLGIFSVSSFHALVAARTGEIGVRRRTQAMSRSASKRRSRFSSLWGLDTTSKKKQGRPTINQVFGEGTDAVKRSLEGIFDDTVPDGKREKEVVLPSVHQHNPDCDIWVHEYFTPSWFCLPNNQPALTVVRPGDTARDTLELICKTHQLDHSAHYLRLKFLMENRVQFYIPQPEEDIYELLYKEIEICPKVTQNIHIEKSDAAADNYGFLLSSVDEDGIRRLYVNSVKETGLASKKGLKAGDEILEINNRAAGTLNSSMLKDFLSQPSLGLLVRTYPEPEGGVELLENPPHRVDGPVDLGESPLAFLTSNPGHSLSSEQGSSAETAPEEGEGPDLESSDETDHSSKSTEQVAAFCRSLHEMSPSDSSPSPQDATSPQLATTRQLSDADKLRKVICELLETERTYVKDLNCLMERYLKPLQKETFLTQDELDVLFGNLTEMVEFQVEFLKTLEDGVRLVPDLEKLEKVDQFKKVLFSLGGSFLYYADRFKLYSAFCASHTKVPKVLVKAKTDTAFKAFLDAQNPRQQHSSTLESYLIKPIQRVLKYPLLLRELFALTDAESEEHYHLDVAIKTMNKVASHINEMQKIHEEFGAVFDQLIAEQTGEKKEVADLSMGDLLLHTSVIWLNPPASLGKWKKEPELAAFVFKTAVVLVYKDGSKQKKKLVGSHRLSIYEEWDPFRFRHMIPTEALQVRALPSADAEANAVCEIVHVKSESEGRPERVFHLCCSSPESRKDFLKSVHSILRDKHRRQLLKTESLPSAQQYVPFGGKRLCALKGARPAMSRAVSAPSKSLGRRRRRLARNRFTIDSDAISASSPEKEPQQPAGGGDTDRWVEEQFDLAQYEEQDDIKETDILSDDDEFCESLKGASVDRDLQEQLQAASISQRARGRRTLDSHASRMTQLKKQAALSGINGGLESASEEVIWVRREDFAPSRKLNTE
# Assay: co-IP; COS cells transfected with Flag-tagged Tiam1 (C1199) and HA-tagged TrkA; IP with anti-Flag, immunoblot with anti-HA; lysis in 0.5% Triton X-100, 1% beta-octylglucoside at 4°C
substance,measurement,value
hemagglutinin (HA)-tagged TrkA (from UniProt P35739 33-799) (receptor),binding,no binding
